In this assay the target is T1, Flag- and HA-tagged Sting (F/HA-Sting), Stimulator of interferon genes (UniProt Q3TBT3).
T1 sequence: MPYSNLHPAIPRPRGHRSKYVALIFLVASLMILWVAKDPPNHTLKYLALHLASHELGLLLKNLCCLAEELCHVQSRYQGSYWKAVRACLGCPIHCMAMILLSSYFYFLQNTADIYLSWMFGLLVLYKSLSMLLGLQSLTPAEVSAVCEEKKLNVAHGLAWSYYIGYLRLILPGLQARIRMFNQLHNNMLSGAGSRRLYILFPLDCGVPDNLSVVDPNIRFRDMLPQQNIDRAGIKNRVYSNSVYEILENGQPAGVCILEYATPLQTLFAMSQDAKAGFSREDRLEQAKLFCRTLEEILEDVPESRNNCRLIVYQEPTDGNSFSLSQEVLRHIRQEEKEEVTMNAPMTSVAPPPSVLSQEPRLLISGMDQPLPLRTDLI
Description: affinity purification with mass spectrometry.

These are yes or no findings as the source states them, for the method shown. In cells and extracts the contact can be indirect. A yes stands for co-enrichment or nearness to the bait. Other partners may have been found. Sequences can lack the tags named with a protein.

B1: Fatty acid desaturase 2 (Fads2), endogenous in MEF (enzyme, UniProt Q9Z0R9 1-444)
chain: MGKGGNQGEGSTERQAPMPTFRWEEIQKHNLRTDRWLVIDRKVYNVTKWSQRHPGGHRVIGHYSGEDATDAFRAFHLDLDFVGKFLKPLLIGELAPEEPSLDRGKSSQITEDFRALKKTAEDMNLFKTNHLFFFLLLSHIIVMESLAWFILSYFGTGWIPTLVTAFVLATSQAQAGWLQHDYGHLSVYKKSIWNHVVHKFVIGHLKGASANWWNHRHFQHHAKPNIFHKDPDIKSLHVFVLGEWQPLEYGKKKLKYLPYNHQHEYFFLIGPPLLIPMYFQYQIIMTMISRRDWVDLAWAISYYMRFFYTYIPFYGILGALVFLNFIRFLESHWFVWVTQMNHLVMEIDLDHYRDWFSSQLAATCNVEQSFFNDWFSGHLNFQIEHHLFPTMPRHNLHKIAPLVKSLCAKHGIEYQEKPLLRALIDIVSSLKKSGELWLDAYLHK
Turning to B1, the binding entry was “binds”.

The values above are taken from article doi:10.1101/2020.12.22.423950.
